Reference: PubChem BioAssay AID2685 (National Center for Advancing Translational Sciences (NCATS), 2010)
Some of the results follow. The main result of the screen is listed elsewhere. These columns were measured beside it and carry no call. Most of these compounds were active or inconclusive in the main read-out, so they are no random draw. The note in brackets gives the kind of curve behind each potency; many fits are weak.

Assay: qHTS Assay for Lipid Storage Modulators in Drosophila S3 Cells;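 as to cell number change: cells counted by Cell Tracker Red CMTPX staining in the red channel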
Conditions: BODIPY lipid droplet fluorescence, 18-24 h; for cell number change: measured here: cell count max response, cells fed with added oleic acid
Outline: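 Drosophila S3 cells got compounds at several concentrations plus oleic acid (400 uM solution). Laser-scanning cytometry with 488 nm excitation read lipid droplets at 500-530 nm and cells at 575-640 nm. Percent activity was relative to 20 uM Triacsin C.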

[1] = measured here: cell number channel AC50, cells fed with added oleic acid
[2] = measured here: lipid fluorescence (Fed channel) AC50, cells fed with added oleic acid

SMILES	cell number change	AC50 [1]	AC50 [2]
COc1ccc(N2CC(C(=O)N3CCOCC3)CC2=O)cc1 (configuration not stated)	19.4%		
O=C(NCc1ccco1)c1cc(S(=O)(=O)N2CCOCC2)ccc1Br	-6.52%	7.31 µM [falling, single point]	
O=C(COc1ccccc1Cl)Nc1ccc(S(=O)(=O)Nc2ccccn2)cc1	9.01%		1.46 µM [falling, full curve]
O=C(c1ccc(Cl)c(S(=O)(=O)N2CCCCC2)c1)N1CCCC1	24.8%		29.1 µM [rising, partial curve, poor fit]
CCS(=O)(=O)Nc1cccc(-c2nc3cccnc3s2)c1	22.6%		0.92 µM [rising, full curve]
CC(C)(C)C(=O)COC(=O)c1ccc2c(c1)C(=O)N(Cc1ccco1)C2=O			0.291 µM [falling, partial curve, poor fit]
O=C(NC1CCS(=O)(=O)C1)C12CC3CC(CC(C3)C1)C2 (configuration not stated)	-28.2%		11.6 µM [falling, partial curve]
O=c1[nH]c2ccccc2c(O)c1-c1cc2ccccc2oc1=O	-38%	4.11 µM [falling, full curve]	29.1 µM [falling, single point]
COc1ccc(CNC(=O)C(=O)NCC2OCCCN2S(=O)(=O)c2cccs2)cc1 (configuration not stated)	10.2%		0.112 µM [rising, full curve, poor fit]
CCOc1c2ccc(C(=O)NCc3ccco3)cc2nn1CC	11.4%		
C=CCC(O)(CC=C)CNC(=O)C1CCC(=O)N(CCCc2ccccc2)C1 (configuration not stated)	-3.94%		29.1 µM [rising, single point]
CC(=O)NS(=O)(=O)c1cccnc1Nc1cccc(Cl)c1C	-0.546%		0.00411 µM [rising, full curve, poor fit]
COc1ccc(C)cc1NC(=O)c1cccc(C(=O)Nc2cc(C)ccc2OC)n1	4.74%		
Cc1ccc(Oc2cc(N3CCOCC3)nc(-c3ccccc3)n2)cc1			32.6 µM [falling, single point]
Cc1nn(-c2ccccc2)c(Cl)c1/C=N/Nc1ccc(Cl)c(C(=O)O)c1	10.4%	6.51 µM [rising, single point]	
C=C(C)c1ccccc1NC(=O)CCN1C(=O)c2ccccc2S1(=O)=O	-7.69%		29.1 µM [falling, single point]
O=C(C(=O)N1CC=C(c2ccccc2)CC1)c1c[nH]c2ccccc12	17.9%		
COC(=O)C1CCN(Cc2ccc(C)cc2)CC1	-24.8%	0.651 µM [falling, full curve, poor fit]	29.1 µM [falling, single point]
O=C(Oc1c(Cl)cc(Cl)c2ccccc12)N1CCCC1	-1.04%		2.31 µM [rising, single point]
CCN(Cc1cc2cc(OC)ccc2[nH]c1=O)C(=O)c1ccncc1	11.4%	0.651 µM [falling, full curve, poor fit]	29.1 µM [rising, single point]
O=C1NC(c2ccc(Br)cc2)Nc2sc3c(c21)CCC3 (configuration not stated)	-56%	25.9 µM [falling, partial curve, poor fit]	6.51 µM [rising, single point]

SMILES	cell number change	AC50 [1]	AC50 [2]
CC(=O)c1ccc(NC(=O)CSCC(=O)Nc2ccc3ccccc3c2)cc1			2.31 µM [rising, single point]
Cc1ccccc1NS(=O)(=O)c1cc2c(cc1C)NC(=O)CO2	-20.2%		9.2 µM [falling, partial curve]
CSc1cc(-c2ccc(Cl)cc2)c(C(=O)NC(C)C)s1	19.3%		32.6 µM [rising, single point]
CCC(C)c1ccc(N(CC(=O)NC(C)(C)C)C(=O)CNC(=O)c2cccs2)cc1 (configuration not stated)	64.3%	16.4 µM [rising, partial curve, poor fit]	
CCCCCCCN1C(N(C)C)=NC[C@@H]1Cc1ccccc1	-30.2%	9.2 µM [falling, partial curve, poor fit]	
Cc1ccc(OCC(=O)N/N=C/c2cn(Cc3ccccc3)c3ccccc23)cc1	-6.83%		
Cc1ccc(NC(=O)c2cc([N+](=O)[O-])ccc2N2CCOCC2)cc1S(=O)(=O)N1CCOCC1	-48.4%	20.6 µM [falling, partial curve]	
COCCNC(=S)N(CCO)Cc1cc2cc3c(cc2[nH]c1=O)OCCO3	-8.73%		29.1 µM [falling, single point]
COc1ccccc1CNC(=O)c1ccc(OCc2c(C)noc2C)c(OC)c1	53.6%	23.1 µM [rising, partial curve, poor fit]	
CC(=O)N1c2ccc(S(=O)(=O)NCC3CCC(C(=O)N4CCC(C)CC4)CC3)cc2CC1C (configuration not stated)	15.3%		29.1 µM [rising, single point]
COc1ccc(NC(=O)c2cc(-c3ccco3)on2)cc1OC	30.8%	11.6 µM [rising, partial curve, poor fit]	
COc1cccc(-n2cnc3cccc(N)c32)c1	5.29%		
COCCn1c(SCC(=O)Nc2cc(C(C)(C)C)nn2-c2ccccc2)nc2ccccc2c1=O	-33.3%	20.6 µM [falling, single point]	
COc1ccc(/C=C2\SC(=S)NC2=O)cc1OS(=O)(=O)c1ccc(NC(C)=O)cc1	3.2%	5.8 µM [falling, single point]	
CCOC(=O)c1c(N)sn(-c2ccccc2C)c1=S	-8.97%		4.11 µM [falling, single point]
O=C1CCC(C(=O)N2CCCCO2)CN1Cc1cccc(C(F)(F)F)c1 (configuration not stated)	6.8%		
O=C(CN1C(=O)C2C3C=CC(C3)C2C1=O)N1CCc2ccccc2C1 (configuration not stated)	-26%	1.64 µM [falling, full curve, poor fit]	
COc1cccc(CN2CC(C(=O)N3CCCCCC3)CCC2=O)c1 (configuration not stated)	7.62%		0.0058 µM [rising, full curve, poor fit]
O=C(CN1CCc2ccccc2C1)Nc1ccccc1N1CCCCCC1	-40%	32.6 µM [falling, single point]	0.411 µM [rising, full curve]
C=C(C)CNC(=S)Nc1nc2c(cc1C(=O)OCC)CCCC2	31.7%	7.31 µM [rising, partial curve]	3.26 µM [rising, single point]
CCCCOc1ccc(OCCNC(=O)c2ccco2)cc1	-5.71%		

SMILES	cell number change	AC50 [1]	AC50 [2]
COc1ccc(-n2nc(C(=O)NCCCN3CCOCC3)c3ccccc3c2=O)c(OC)c1	5.07%		29.1 µM [falling, single point]
Cc1ccccc1-n1c(SC/C(O)=C(\C#N)c2nc3ccccc3[nH]2)nnc1-c1ccncc1	32.4%	0.0291 µM [rising, full curve, poor fit]	9.2 µM [rising, single point]
Cc1cc(S(=O)(=O)Nc2ccc(C(=O)NCC(c3ccccc3)N(C)C)cc2)ccc1F (configuration not stated)	11.3%		
CCOC(=O)/C=C(\C)Sc1cc(O)c2ccccc2c1O	-59.2%	23.1 µM [falling, single point]	16.4 µM [falling, single point]
Cc1c(C(=O)OCC(=O)NC2CCCCC2)oc2ccccc12	6.83%		0.82 µM [rising, full curve, poor fit]
O=C(Cc1ccccc1Cl)Nc1ccc(S(=O)(=O)Nc2nccs2)cc1	19.2%		31.6 µM [rising, partial curve, poor fit]
CC(C)N(CCCNC(=O)Cn1ncc2c([nH]c3ccccc32)c1=O)Cc1ccccc1	6.1%		29.1 µM [rising, single point]
COc1ccc(C)cc1NC(=O)c1ccc2c(c1)C(=O)N(Cc1ccncc1)C2=O	-4.51%		0.517 µM [falling, single point]
Clc1ccc(/C=N/Nc2nnc(Cl)c3ccccc23)cc1	-9.27%	4.11 µM [falling, single point]	5.8 µM [falling, single point]
COc1ccc(NS(=O)(=O)c2ccc(N3CCCC3=O)cc2)cn1	18.7%		0.517 µM [rising, partial curve, poor fit]
COc1ccc(Cn2nc(C(=O)O)c3ccccc3c2=O)cc1F	17.9%		
CN(C)CCCOc1ccc(Cl)cc1Br	-3.45%		6.51 µM [rising, single point]
CC(C)CNC(=O)CCCc1ccccc1			18.4 µM [rising, single point]
OCCCN1CCN(CCCOc2ccccc2-c2ccccc2)CC1	-4.6%		6.51 µM [rising, single point]
O=C(/C=C/c1c[nH]c2ccccc12)c1ccccc1	-45.6%	25.9 µM [falling, single point]	
COc1cc2ccccc2cc1C(=O)Nc1nccs1	-20.7%		0.146 µM [falling, full curve, poor fit]
O=S(=O)(Nc1cccc(-n2cnnn2)c1)c1ccc(Cl)cc1	8.73%		
Cc1cc(NC(=O)CCC(=O)N(Cc2ccco2)C2(C(=O)NC3CCCC3)CCCCC2C)no1 (configuration not stated)	16.7%	0.00517 µM [rising, full curve, poor fit]	
O=C(NC1CCCC1)C(c1ccncc1)N(C(=O)c1ccco1)c1ccccc1 (configuration not stated)	-18.1%		0.58 µM [falling, single point]
COc1ccccc1/C=C/C=N/Nc1cccc(C(=O)O)c1	-18.1%		

Four records picked at random from those above:
SMILES	cell number change	AC50 [1]	AC50 [2]
COc1ccc(-n2nc(C(=O)NCCCN3CCOCC3)c3ccccc3c2=O)c(OC)c1	5.07%		29.1 µM [falling, single point]
COc1ccc(C)cc1NC(=O)c1ccc2c(c1)C(=O)N(Cc1ccncc1)C2=O	-4.51%		0.517 µM [falling, single point]
Cc1ccccc1-n1c(SC/C(O)=C(\C#N)c2nc3ccccc3[nH]2)nnc1-c1ccncc1	32.4%	0.0291 µM [rising, full curve, poor fit]	9.2 µM [rising, single point]
CC(C)N(CCCNC(=O)Cn1ncc2c([nH]c3ccccc32)c1=O)Cc1ccccc1	6.1%		29.1 µM [rising, single point]
